From publication doi:10.1101/2022.06.27.497849 come the findings set out here.

Holding throughout (experiment): affinity purification with mass spectrometry
In assay [1] the target is GFP tagged TbMex67b (Trypanosoma brucei) (UniProt Q386S5).
Assay [2] concerns the target GFP tagged TbMex67L (Trypanosoma brucei) (UniProt Q38C37).
For assay [3] the target is unchanged. The source holds these as a separate data set.

Read-outs that look alike come from different tables or passages of the source. Results are given in words; binding and its absence hold for the method and conditions named. Binding seen in cells or lysates may run through a third protein. A yes stands for co-enrichment or nearness to the bait. Other partners may have been found. For part of these data: A no says only that the protein was not detected with the bait.

Consider “TBC-domain containing GTPase-activating protein (TbGAP) (from UniProt Q38AJ6)”, for which the binding result in assay [1] is reported as “binds”; in assay [2] it was “no binding”.

B1: Nog1 (protein, UniProt Q9U6A9 1-655)
chain: MSTIYNFKTVTVVPSYKDFIDIVLSKTQRKTPTVVHKGYHISRIRQFYMRKVKFTQKTINEKLTHILTEFPRMDDIHPFYGDLMHVLYDRDHYKVALGQVGAVRHMVDNVGRDYVRLLKYGDSLYRCKQLKRAALGRMATACKKLTSALVYLEKVRQHMSRLPSIDPNARTLLITGFPNVGKSSFMNKVTRADVEVQPYAFTTKSLFVGHTDFKYASWQVIDTPGILDHSLEERNVIEMQAITALAHLRACILFFMDLSTQCGHSIAQQVSLFKSIGPLFTGKPVIVVFNKSDLCTFDDITAEEQSLVMTAIEECGAKWITTSTLTDAGVGDLKTLACETLLAHRSEQKEGSGRFQAIQNRLYCAVPQKRDNVERPAYVPPSVEEIRQRLASGEPVRERRKTERDYEWENGGPGQYQPNERKTWDLENPEWVDDIIPDIMDGHNIYDNVDPDIHERLMELEAEEDARLQELELEASKKRPQYELHDSTVEAVRFIRDKIKVIKMERAMKNPSLRRTRRQSVAIEKFNKRTGSQVDRSATPGCSSETTNSSAKRGRSLSAAQEAVMRDRSSSHMSTKTTRGISSHSATRDRSLSVNRGEGYRDVNEKLRAVKLSKVVARPRNLQAKKGEGDRAIPNLRPKHLFTGKVKSNGRRDRR
B1: in assay [3], the binding entry is “binds”.
